Literature values in paper PMC4796946 (Nature, 2015).

Settings: cited from earlier work

## O=C1CN=C(c2ccccc2)c2cc(Cl)ccc2N1 [desmethyldiazepam]
  concentration in plasma during treatment: micromolar
